We go through one molecule from publication PMC4650713, “Crystal structure of Bax bound to the BH3 peptide of Bim identifies important contacts for interaction” (Cell Death & Disease, 2015).

Chains of the proteins cited; added tags and fusions are not shown. Lines headed by an entry give the natural chain unless they say otherwise; changes in a name come on top. A line that says so, or that is headed by a name, gives the form on record, which may keep a tag or linker.
BaxΔC21 (Q07812, form named): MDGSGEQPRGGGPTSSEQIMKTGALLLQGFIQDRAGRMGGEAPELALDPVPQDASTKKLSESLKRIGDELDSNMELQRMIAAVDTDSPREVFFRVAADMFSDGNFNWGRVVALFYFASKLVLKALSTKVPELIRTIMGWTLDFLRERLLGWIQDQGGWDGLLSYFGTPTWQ

These are yes or no findings as the source states them, for the method shown. Some binding calls cover weakened binding; strength is not graded here.

The assay concerns the target BaxΔC21 (UniProt Q07812). Put plainly: SPR; competition in solution: BaxΔC21 at 25 nM incubated with increasing concentrations of BH3 peptide in 10 mM HEPES, 150 mM NaCl, 3.4 mM EDTA, 0.005% Tween-20, pH 7.4 with 0.5% octylglucoside, injected onto a CM5 chip with immobilised BimBH3; Bim4E channel subtracted; IC50; both purified.

With SESQEDIIRNIARHLRQVGDSMDRSIPPGLVNGL (peptide, UniProt P55957 76-109) [BidBH3 A91R], the binding entry was “binds”.
